The record followed here is patent US20230141052A1.

By UniProt entry, the sequences of proteins in these tests, tags left out. Residues count along the entry.
UniProt P06127, residues 25-372: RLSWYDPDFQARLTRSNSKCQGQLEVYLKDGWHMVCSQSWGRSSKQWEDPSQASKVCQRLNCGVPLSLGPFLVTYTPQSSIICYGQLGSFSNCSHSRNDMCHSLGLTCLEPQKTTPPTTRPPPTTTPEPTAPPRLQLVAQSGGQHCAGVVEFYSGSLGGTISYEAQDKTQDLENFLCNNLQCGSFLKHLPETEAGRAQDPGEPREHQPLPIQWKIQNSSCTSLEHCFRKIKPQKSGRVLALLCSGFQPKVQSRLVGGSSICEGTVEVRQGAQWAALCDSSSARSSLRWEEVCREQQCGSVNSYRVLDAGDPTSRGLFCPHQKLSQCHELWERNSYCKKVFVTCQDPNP

Assay [1] addresses Alexa647-conjugated CD5 protein (UniProt P06127). The assay is described as follows: flow cytometry of transfected HEK293T cells stained with labeled CD5.
The target is the same in assay [2]. The assay is described as follows: flow cytometry of HEK293 cells stained with Alexa647-conjugated CD5 protein.

These are yes or no findings as the source states them, for the method shown. Some entries that bind do so weakly or less than the wild type. Tags and fused reporters may be left off the sequences shown.

B1: CD5-intron-fcr-PI3K (ATAK) recombinant chimeric fusion receptor protein (receptor)
chain: EIQLVQSGGGLVKPGGSVRISCAASGYTFTNYGMNWVRQAPGKGLEWMGWINTHTGEPTYADSFKGRFTFSLDDSKNTAYLQINSLRAEDTAVYFCTRRGYDWYFDVWGQGTTVTVSSGGGGSGGGGSGGGGSDIQMTQSPSSLSASVGDRVTITCRASQDINSYLSWFQQKPGKAPKTLIYRANRLESGVPSRFSGSGSGTDYTLTISSLQYEDFGIYYCQQYDESPWTFGGGTKLEIKSGGGGSGALSNSIMYFSHFVPVFLPAKPTTTPAPRPPTPAPTIASQPLSLRPEACRPAAGGAVHTRGLDIYIWAPLAGTCGVLLLSLVITLYCRRLKIQVRKAAITSYEKSDGVYTGLSTRNQETYETLKHEKPPQGSGSYEDMRGILYAAPQLRSIRGQPGPNHEEDADSYENM
For the molecule B1, the binding entry in assay [1] and in assay [2] was “binds” in each case.
